Drawing on PMC10217904, this text covers binding for 1 molecule.

Results are given in words; binding and its absence hold for the method and conditions named. In cells and extracts the contact can be indirect. Some binding calls cover weakened binding; strength is not graded here. Tags and fused reporters may be left off the sequences shown.

This test concerns the target T1, cLUC-ATPc (Arabidopsis) (UniProt P60112).
T1 sequence: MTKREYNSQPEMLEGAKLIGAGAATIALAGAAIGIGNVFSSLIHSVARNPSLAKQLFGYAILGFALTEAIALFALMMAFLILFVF
As to the kind of experiment: split reporter; luciferase complementation imaging (LCI): nLUC and cLUC fusions co-infiltrated 1:1 into N. benthamiana leaves, imaged 48 h after infiltration with 1 mM luciferin.

B1: nLUC-PHB3 (protein, UniProt O04331 1-277)
chain: MGSQQAAVSFLSNLAKAAFGLGTAATVLNTSLFTVDGGERAVIFDRFRGVMDQTVGEGTHFLIPILQRPHIFDIRTKPHTFSSISGTKDLQMVNLTLRVLSRPEVSRLPYIFQTLGLEYDEKVLPSIGNEVLKAVVAQFNADQLLTERPHVSALVRESLITRAKDFNIVLDDVAITHLSYGVEFSRAVEQKQVAQQEAERSKFVVMKADQERRAAVIRAEGESEAAQLISDATAKAGMGLIELRRIEASREIASTLARSPNVAYLPGGQSMLFALNR
B1: the binding result was “binds”.
